{
  "source": "PubChem BioAssay AID504467",
  "about": "(National Center for Advancing Translational Sciences (NCATS), 2011)",
  "note": "The campaign covered roughly 330,000 compounds. About 7,700 (2.3%) were called active. This list was built around the results that the source calls inconclusive (neither active nor inactive); the mix of calls is not that of the screen. Calls come from the whole dose curve; as a rule, active = well fitted inhibition curve with a large enough effect; inconclusive = small, poorly fitted or top-dose-only effect, or effect the other way; inactive = flat fitted curve, though single readings scatter. Potencies beside an inconclusive call are fits to weak or partial responses and may not hold up. % is set by controls: 0 for no effect and ±100 for the full control effect; potency is the fitted concentration of half-maximal effect.",
  "data": [
    {"assay": "qHTS screen for small molecules that inhibit ELG1-dependent DNA repair in human embryonic kidney (HEK293T) cells expressing luciferase-tagged ELG1; note: nearly all actives have a fitted effect of over 55% in size", "conditions": "HEK293T ELG1-luciferase reporter, luminescence, 16 h, DNA damage induced by 5-fluorouridine; activity change, negative = inhibition: at 46.1 µM (top of the series)", "method_in_brief": "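5-Fluorouridine DNA damage + compound/DMSO, 2,000 cells/well, 16 h, 37 °C/5% CO2. ONE-Glo, 30 min RT, luminescence. Readout = decrease in reporter signal.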", "values": [
      {"smiles": "CCN(CC)S(=O)(=O)c1cccc(-c2nnc(SCCCC(=O)c3ccc(F)cc3)o2)c1", "Potency": "active: 16.4 µM"},
      {"smiles": "C=CCNC(=S)NN(c1ccccc1)c1ccccc1", "activity change, negative = inhibition": "inactive: -13.2%"},
      {"smiles": "COc1ccc(C(=O)NCCN2CCOCC2)c(OC)c1", "activity change, negative = inhibition": "inactive: -19.6%"},
      {"smiles": "Cc1onc(-c2ccccc2)c1-c1csc(N/N=C/c2ccccc2)n1", "Potency": "inconclusive: 7.3 µM [inhibitor, partial curve]"},
      {"smiles": "CCOC(=O)c1sc(NC(=O)c2ccc(S(=O)(=O)N(CC)CC)cc2)nc1C", "Potency": "inconclusive: 3.26 µM [inhibitor, single point]"},
      {"smiles": "CCOc1ccc(N(C)S(=O)(=O)c2ccc(C)c(C(=O)NCCc3ccc(OC)cc3)c2)cc1", "Potency": "inconclusive: 10.3 µM [inhibitor, partial curve, poor fit]"},
      {"smiles": "CCn1c(CNC(=O)C23CC4CC(CC(C4)C2)C3)nnc1SC", "activity change, negative = inhibition": "inactive: -5.62%"},
      {"smiles": "Cc1ccc2nc(-c3cccc(NC(=O)c4ccc5c(c4)OCCO5)c3)oc2c1", "Potency": "inconclusive: 18.4 µM [activator, partial curve, poor fit]"},
      {"smiles": "O=C(O)c1cccc(NC(=S)NC(=O)c2ccc(-c3ccc(Cl)cc3)o2)c1", "Potency": "inconclusive: 20.6 µM [activator, partial curve]"},
      {"smiles": "COc1ccc(NC(=O)c2sc(N3CCOCC3)nc2-c2ccccc2)c(OC)c1", "Potency": "active: 13 µM"},
      {"smiles": "CCOC(=O)c1c(NC(=O)c2ccco2)sc2c1CCCC2", "activity change, negative = inhibition": "inactive: 1.79%"},
      {"smiles": "O=C(NCc1ccc(F)cc1)N1CCc2ccccc2C1", "Potency": "inconclusive: 29.1 µM [activator, single point]"},
      {"smiles": "COc1cc(C)nc(-n2nc(C)cc2OC)n1", "activity change, negative = inhibition": "inactive: 0.0883%"},
      {"smiles": "c1ccc(-c2ccccc2OCCn2cncn2)cc1", "Potency": "inconclusive: 20.6 µM [inhibitor, single point]"},
      {"smiles": "CCN(Cc1cc2cc(C)ccc2[nH]c1=O)C(=O)c1cccc([N+](=O)[O-])c1", "Potency": "inconclusive: 32.6 µM [inhibitor, single point]"},
      {"smiles": "CCCCCOc1ccc(CSc2n[nH]c(C)n2)cc1", "activity change, negative = inhibition": "inactive: 12.7%"},
      {"smiles": "COc1cc(CC(=O)Nc2ncc(C)s2)cc(OC)c1OC", "Potency": "inconclusive: 18.4 µM [inhibitor, partial curve, poor fit]"},
      {"smiles": "CCOC(=O)C1=C(C)N(c2ccc(OC)cc2)C(=O)/C1=C\\c1ccc(O)c(OCC)c1", "activity change, negative = inhibition": "inactive: -11%"},
      {"smiles": "COc1ccc([C@H]2CC(=O)C=C(c3ccc(-c4ccccc4)c(F)c3)C2)cc1OC", "Potency": "inconclusive: 7.3 µM [inhibitor, partial curve, poor fit]"},
      {"smiles": "O=C(Nc1cc(C(F)(F)F)ccc1-n1cncn1)c1ccc(-c2ccccc2)cc1", "Potency": "inconclusive: 9.2 µM [inhibitor, partial curve, poor fit]"},
      {"smiles": "COc1ccc(CN2C[C@H](Cc3ccccc3)[C@@H](CC(=O)Nc3ccccc3)C2=O)cc1", "Potency": "inconclusive: 10.3 µM [inhibitor, partial curve, poor fit]"},
      {"smiles": "CCOc1ccc(NS(=O)(=O)c2cc(C(=O)NCCCN3CCCC3=O)ccc2C)cc1", "activity change, negative = inhibition": "inactive: -1.92%"},
      {"smiles": "O=C(NC(=S)NCCC1=CCCCC1)c1ccccc1Br", "Potency": "inconclusive: 29.1 µM [activator, single point]"},
      {"smiles": "COC(=O)Cn1c(=O)c2c(nc3n2CCCN3CCc2ccc(OC)c(OC)c2)n(C)c1=O", "activity change, negative = inhibition": "inactive: -8.48%"},
      {"smiles": "O=C(N/N=C/c1ccccc1[N+](=O)[O-])C(=O)N1CCCC1", "Potency": "inconclusive: 23.1 µM [activator, single point]"},
      {"smiles": "Cc1ccc(NCc2ccccc2F)cc1", "Potency": "inconclusive: 29.1 µM [activator, single point]"},
      {"smiles": "CNC(=O)c1cccc(NC(=O)CCCNC(=O)c2ccc(Cl)cc2)c1", "Potency": "inconclusive: 18.3 µM [activator, partial curve]"},
      {"smiles": "COc1cc(O)c(CCC(=O)c2cc(OC)c(OC)c(OC)c2)c(OC)c1", "Potency": "inconclusive: 29.1 µM [inhibitor, single point]"},
      {"smiles": "COc1cc(C(C)=O)ccc1OCC(=O)NCCCn1nc(C)cc1C", "Potency": "inconclusive: 6.51 µM [activator, single point]"},
      {"smiles": "O=S(=O)(Cc1ccccc1)N1CCCCC1", "Potency": "inconclusive: 23.1 µM [activator, partial curve]"},
      {"smiles": "O=C(CCCOc1ccccc1)Nc1cc(S(=O)(=O)N2CCOCC2)ccc1N1CCOCC1", "Potency": "inconclusive: 4.11 µM [inhibitor, partial curve, poor fit]"},
      {"smiles": "Cc1ccc(C(=O)OCc2nc3ccsc3c(=O)[nH]2)o1", "Potency": "inconclusive: 0.164 µM [activator, single point]"},
      {"smiles": "Nc1nc(CSc2ncn(-c3ccccc3)n2)cs1", "Potency": "inconclusive: 9.2 µM [activator, partial curve]"},
      {"smiles": "COc1ccc(CNC(=O)c2ccc(N(C)S(=O)(=O)c3ccc(C)cc3)cc2)cc1", "Potency": "active: 20.6 µM"},
      {"smiles": "Cc1c(C(=O)Nc2cccc(S(=O)(=O)N3CCOCC3)c2)oc2ccccc12", "Potency": "inconclusive: 23.1 µM [inhibitor, single point]"},
      {"smiles": "FC(F)Sc1ccc(NC(=S)N2CCN(c3ccccn3)CC2)cc1", "Potency": "inconclusive: 23.1 µM [inhibitor, partial curve, poor fit]"},
      {"smiles": "Cc1cc(CN(C)C(=O)C2CCC(=O)N(CCc3cccc(F)c3)C2)on1", "note": "(centres undefined)", "activity change, negative = inhibition": "inactive: -0.394%"},
      {"smiles": "Clc1ccc(-n2ncc3c(NCCCn4ccnc4)ncnc32)cc1", "Potency": "inconclusive: 20.6 µM [activator, partial curve]"},
      {"smiles": "C=CCN(CC=C)C(=O)c1ccc2nc(Cc3ccc(OC)c(OC)c3)oc2c1", "Potency": "inconclusive: 9.2 µM [inhibitor, partial curve, poor fit]"},
      {"smiles": "CC1(C)Cc2c(C#N)c(N3CCN(C(=O)c4ccccc4)CC3)nc(-c3ccco3)c2CS1", "Potency": "inconclusive: 29.1 µM [inhibitor, single point]"},
      {"smiles": "O=C(Nc1nnc(Cc2ccccc2F)s1)Nc1ccccc1F", "Potency": "inconclusive: 9.2 µM [activator, partial curve]"},
      {"smiles": "CCOC(=O)C1=C(C)NC(=S)NC1c1ccc(-c2cccc(Cl)c2C)o1", "note": "(centres undefined)", "Potency": "active: 20.6 µM"},
      {"smiles": "C=C(C)COc1ccc(-c2[nH]ncc2Oc2ccc(OC)cc2)c(O)c1", "activity change, negative = inhibition": "inactive: 28.4%"},
      {"smiles": "Nc1ccc(C(=O)Nc2ccc(OC(F)(F)C(F)F)c(NC(=O)c3ccc(N)cc3)c2)cc1", "Potency": "inconclusive: 25.9 µM [inhibitor, partial curve, poor fit]"}
    ]}
  ]
}
